These are yes or no findings as the source states them, for the method shown. In cells and extracts the contact can be indirect. Some results given as binding are weak or reduced against the parent protein; the word gives no strength. Sequences can lack the tags named with a protein.
B1: Spn1-tdTomato (protein, UniProt O36023 1-469)
chain: MASMVLADGMPTVKDDSTRSRGSDVDSFTSTDNVTQINVEAAISENKNEEKPIQDNSEQEFNPHVSIIQRQLNGYVGFASLPNQWHRRCVRQGFNFNVLVLGESGSGKSTLVNTLLNRDVYPPTQKSLTGDFGVNPEPTVMINSSAVEIVENGISLQLNVIDTPGFGDFIDNTDCWQPVLTDIEGRYDQYLELEKHNPRSTIQDPRVHACIFFIQPTGHAISAMELRVMLALHEKVNIIPIIAKADTLTDDELNFTKEMILRDIQYHNIRIFFPPTYETDDPESVAENADIMSRIPFAIIASNTFVVNNEGKRVRGRRYPWGVVEVDNEEHSDFPKLREMLIRTHLEELKEQTNKLYEAYRTERLLSSGISQDHSVFREVNPSAKLEEERALHEEKLMKMEAEMKTIFSQKVQEKEDRLKQSENELRTRHREMKAALEKQKADLIDHKNRLMQAKAAAENEKSKRKFFK
B2: Spn1 (co-expressed in E. coli) (protein, UniProt O36023 1-469)
chain: MASMVLADGMPTVKDDSTRSRGSDVDSFTSTDNVTQINVEAAISENKNEEKPIQDNSEQEFNPHVSIIQRQLNGYVGFASLPNQWHRRCVRQGFNFNVLVLGESGSGKSTLVNTLLNRDVYPPTQKSLTGDFGVNPEPTVMINSSAVEIVENGISLQLNVIDTPGFGDFIDNTDCWQPVLTDIEGRYDQYLELEKHNPRSTIQDPRVHACIFFIQPTGHAISAMELRVMLALHEKVNIIPIIAKADTLTDDELNFTKEMILRDIQYHNIRIFFPPTYETDDPESVAENADIMSRIPFAIIASNTFVVNNEGKRVRGRRYPWGVVEVDNEEHSDFPKLREMLIRTHLEELKEQTNKLYEAYRTERLLSSGISQDHSVFREVNPSAKLEEERALHEEKLMKMEAEMKTIFSQKVQEKEDRLKQSENELRTRHREMKAALEKQKADLIDHKNRLMQAKAAAENEKSKRKFFK
B3: Spn3 (co-expressed in E. coli) (protein, UniProt P48008 1-373)
chain: MRTTKKSSKKGIPLNLMVVGDVGLGRTAFINTLCEKPLIRHNNNFDPAEASSVSPVEIVPYQTDIILEDGTKINLTVLDTPHFGEAIDNENNFDIILQYIESQYDNVLEEESRIKRNARFCDDRVHALIYFISPTGHGLRELDIELMRRLAPRVNIIPAIAKADSLTAQELQTTKEMINADIEYYKIPVYDFPYDIEEDEEAIINLSQQLRATIPFAIVSSDRLIEMNGQTVRGRAYPWGVVEVDNPRHSDFLALRSALFATHIEDLHNITSNQLYETYRTEKLSTSQLLLDSTVGLDGKNLSQHDQVLREDRLRAIELSVQKEIEEKRRQLLAREEALRALEEKLAASTAAMANASVSTLPSSVSSTNHSQS

Columns and labels:
Rga6-3GFP (S. pombe) = target: T1, Rga6-3GFP (S. pombe) (UniProt O43027); assay: co-IP
T1 sequence: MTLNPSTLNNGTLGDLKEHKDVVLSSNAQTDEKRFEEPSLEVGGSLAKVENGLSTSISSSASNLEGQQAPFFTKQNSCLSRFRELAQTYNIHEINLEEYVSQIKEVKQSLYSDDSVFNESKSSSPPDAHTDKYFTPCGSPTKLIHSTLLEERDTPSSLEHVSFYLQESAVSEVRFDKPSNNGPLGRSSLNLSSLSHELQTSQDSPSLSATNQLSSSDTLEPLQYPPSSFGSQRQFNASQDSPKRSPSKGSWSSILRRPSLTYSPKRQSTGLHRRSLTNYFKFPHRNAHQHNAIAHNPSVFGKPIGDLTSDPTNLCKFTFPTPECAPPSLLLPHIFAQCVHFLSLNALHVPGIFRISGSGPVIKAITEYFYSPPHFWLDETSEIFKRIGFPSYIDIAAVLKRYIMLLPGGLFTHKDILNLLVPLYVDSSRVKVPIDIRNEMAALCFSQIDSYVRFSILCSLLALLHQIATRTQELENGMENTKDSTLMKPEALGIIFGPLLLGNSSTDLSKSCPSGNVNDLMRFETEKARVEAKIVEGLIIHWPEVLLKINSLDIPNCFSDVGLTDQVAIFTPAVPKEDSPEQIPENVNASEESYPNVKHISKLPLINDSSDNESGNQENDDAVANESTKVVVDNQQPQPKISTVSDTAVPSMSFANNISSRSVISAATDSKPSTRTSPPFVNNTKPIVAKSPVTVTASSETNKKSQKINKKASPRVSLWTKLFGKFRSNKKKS

Bub1-GFP (S. pombe) = target: T2, Bub1-GFP (S. pombe) (UniProt O94751); assay: co-IP
T2 sequence: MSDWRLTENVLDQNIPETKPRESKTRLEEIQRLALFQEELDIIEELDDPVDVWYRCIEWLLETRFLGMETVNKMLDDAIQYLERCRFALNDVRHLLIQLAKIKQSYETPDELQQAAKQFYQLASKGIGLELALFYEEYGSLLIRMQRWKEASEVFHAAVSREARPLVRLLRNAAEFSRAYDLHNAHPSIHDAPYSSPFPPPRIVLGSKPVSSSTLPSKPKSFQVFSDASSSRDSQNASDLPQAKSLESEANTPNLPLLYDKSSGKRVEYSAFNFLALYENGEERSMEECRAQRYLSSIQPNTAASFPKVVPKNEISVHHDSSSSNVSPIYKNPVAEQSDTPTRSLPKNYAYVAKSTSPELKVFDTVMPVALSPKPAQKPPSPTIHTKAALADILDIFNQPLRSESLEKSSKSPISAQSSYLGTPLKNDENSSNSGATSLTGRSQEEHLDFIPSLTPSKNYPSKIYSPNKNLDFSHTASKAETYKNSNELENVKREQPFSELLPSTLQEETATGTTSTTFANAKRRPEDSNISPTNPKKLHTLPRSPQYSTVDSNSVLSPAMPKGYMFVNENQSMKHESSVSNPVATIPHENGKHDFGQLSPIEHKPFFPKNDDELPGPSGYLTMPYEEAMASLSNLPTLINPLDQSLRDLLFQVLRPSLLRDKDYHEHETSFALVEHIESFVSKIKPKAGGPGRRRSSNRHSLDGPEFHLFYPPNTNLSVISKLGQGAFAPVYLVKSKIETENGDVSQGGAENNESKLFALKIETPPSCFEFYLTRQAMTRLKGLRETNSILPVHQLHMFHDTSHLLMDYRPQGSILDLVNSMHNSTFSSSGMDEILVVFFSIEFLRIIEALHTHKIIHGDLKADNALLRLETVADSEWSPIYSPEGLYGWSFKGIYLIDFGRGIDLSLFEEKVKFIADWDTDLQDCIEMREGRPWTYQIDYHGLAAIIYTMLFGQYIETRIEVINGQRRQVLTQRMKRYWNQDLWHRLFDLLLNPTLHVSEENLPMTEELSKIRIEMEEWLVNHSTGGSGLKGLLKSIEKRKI

Rga6(FL)-GFP (S. pombe) = target: T3, Rga6(FL)-GFP (S. pombe) (UniProt O43027); assay: co-IP
T3 sequence: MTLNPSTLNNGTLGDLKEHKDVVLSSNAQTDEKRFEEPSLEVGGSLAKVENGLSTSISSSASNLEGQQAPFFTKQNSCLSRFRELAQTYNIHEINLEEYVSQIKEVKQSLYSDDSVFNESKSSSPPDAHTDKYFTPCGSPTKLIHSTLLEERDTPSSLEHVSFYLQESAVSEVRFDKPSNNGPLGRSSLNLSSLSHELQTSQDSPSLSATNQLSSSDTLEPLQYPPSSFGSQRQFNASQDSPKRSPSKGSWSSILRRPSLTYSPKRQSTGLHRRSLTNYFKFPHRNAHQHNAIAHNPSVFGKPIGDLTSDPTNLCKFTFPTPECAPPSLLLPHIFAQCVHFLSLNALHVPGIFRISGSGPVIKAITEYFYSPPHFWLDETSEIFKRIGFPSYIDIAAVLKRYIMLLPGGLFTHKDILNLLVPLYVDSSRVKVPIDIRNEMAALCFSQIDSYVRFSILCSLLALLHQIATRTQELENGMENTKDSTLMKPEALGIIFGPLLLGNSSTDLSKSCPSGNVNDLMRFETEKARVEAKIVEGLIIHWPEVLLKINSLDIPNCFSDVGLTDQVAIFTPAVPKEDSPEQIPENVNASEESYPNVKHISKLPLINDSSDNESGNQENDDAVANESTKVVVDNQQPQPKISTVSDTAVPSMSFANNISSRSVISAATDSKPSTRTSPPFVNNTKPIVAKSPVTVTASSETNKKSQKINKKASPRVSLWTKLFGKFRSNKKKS

Spn2-3GFP (S. pombe) = target: T4, Spn2-3GFP (S. pombe) (UniProt Q09116); assay: co-IP
T4 sequence: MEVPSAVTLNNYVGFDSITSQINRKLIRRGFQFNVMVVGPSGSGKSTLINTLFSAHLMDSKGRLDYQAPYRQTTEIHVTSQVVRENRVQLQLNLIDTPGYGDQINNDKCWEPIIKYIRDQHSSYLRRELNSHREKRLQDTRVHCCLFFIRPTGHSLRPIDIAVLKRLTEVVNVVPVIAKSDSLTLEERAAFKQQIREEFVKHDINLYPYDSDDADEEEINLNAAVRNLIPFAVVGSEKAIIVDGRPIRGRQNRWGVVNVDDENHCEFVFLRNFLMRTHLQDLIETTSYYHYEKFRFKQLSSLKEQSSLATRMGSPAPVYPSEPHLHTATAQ

Spn2-GST (S. pombe) = target: T5, Spn2-GST (S. pombe) (UniProt Q09116); assay: pull-down
T5 sequence: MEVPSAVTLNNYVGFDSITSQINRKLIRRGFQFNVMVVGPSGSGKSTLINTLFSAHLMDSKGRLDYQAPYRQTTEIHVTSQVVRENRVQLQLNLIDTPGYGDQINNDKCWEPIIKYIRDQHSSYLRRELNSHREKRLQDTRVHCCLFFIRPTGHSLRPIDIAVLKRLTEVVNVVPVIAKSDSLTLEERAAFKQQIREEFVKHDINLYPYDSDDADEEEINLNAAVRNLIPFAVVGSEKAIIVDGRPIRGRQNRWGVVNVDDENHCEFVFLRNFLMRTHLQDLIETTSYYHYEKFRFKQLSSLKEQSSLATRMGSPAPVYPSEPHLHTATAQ

Row | Binder | binding (Rga6-3GFP (S. pombe)) | binding (Bub1-GFP (S. pombe)) | binding (Rga6(FL)-GFP (S. pombe)) | binding (Spn2-3GFP (S. pombe)) | binding (Spn2-GST (S. pombe))
1 | B1 | binds | no binding | binds | binds | –
2 | B2 | – | – | – | – | binds
3 | B3 | – | – | – | – | binds

— article doi:10.1101/2021.03.30.437639
